Data as given in US20060276416A1, “Methods and compositions for treating flushing and drug induced weight gain” (Sirtris Pharmaceuticals, Inc., priority 2005, published 2006).

Key:
Assay type in all cases: in vivo
[1] = test system: D. melanogaster; test: D. melanogaster feeding (crop-filling assay) and body mass
[2] = test system: C. elegans; test: C. elegans fecundity assay
[3] = test system: C. elegans; test: C. elegans feeding rate (pharyngeal pumping)

With `Oc1ccc(/C=C/c2cc(O)cc(O)c2)cc1` [Resveratrol, 3,5,4′-Trihydroxy-trans-stilbene] the Body weight ([1]; 10 μM, 15% SY diet) was “maintained normal weight”, the Food uptake ([1]; resveratrol-fed flies) was “no decrease” and the “Fecundity of adult hermaphrodites” value ([2]; 100 μM, controls 106) was 99 eggs/5 worms/5 hours. The “Fecundity (in words)” value ([2]; resveratrol treatment) was “no decrease”, the Feeding rate ([3]; Adult on dead OP50, 100 μM, control 228±26.2) was 283±31.9 pumps/min and the Feeding rate ([3]; Adult on live OP50, 100 μM, control 383±16.0) was 383±22.7 pumps/min. The “Feeding rates (in words)” value ([3]; L4 larval and adult worms) was “no differences” and the Feeding rate ([3]; L4 on live OP50, 100 μM, control 310±10.2) was 315±9.8 pumps/min.
